Results are given in words; binding and its absence hold for the method and conditions named. For part of these data: In cells and extracts the contact can be indirect. Some entries that bind do so weakly or less than the wild type. Values belong to the molecule of their own block, whether it stands above or below them.
How the values were obtained:
[1] = molecular target: T1, recombinant human MACC1 (human) (UniProt Q6ZN28); test: co-IP; cell-free Co-IP: recombinant human MACC1 and β-catenin co-incubated in an equimolar ratio in lysis buffer; IP of MACC1 and IP of β-catenin; both purified
T1 sequence: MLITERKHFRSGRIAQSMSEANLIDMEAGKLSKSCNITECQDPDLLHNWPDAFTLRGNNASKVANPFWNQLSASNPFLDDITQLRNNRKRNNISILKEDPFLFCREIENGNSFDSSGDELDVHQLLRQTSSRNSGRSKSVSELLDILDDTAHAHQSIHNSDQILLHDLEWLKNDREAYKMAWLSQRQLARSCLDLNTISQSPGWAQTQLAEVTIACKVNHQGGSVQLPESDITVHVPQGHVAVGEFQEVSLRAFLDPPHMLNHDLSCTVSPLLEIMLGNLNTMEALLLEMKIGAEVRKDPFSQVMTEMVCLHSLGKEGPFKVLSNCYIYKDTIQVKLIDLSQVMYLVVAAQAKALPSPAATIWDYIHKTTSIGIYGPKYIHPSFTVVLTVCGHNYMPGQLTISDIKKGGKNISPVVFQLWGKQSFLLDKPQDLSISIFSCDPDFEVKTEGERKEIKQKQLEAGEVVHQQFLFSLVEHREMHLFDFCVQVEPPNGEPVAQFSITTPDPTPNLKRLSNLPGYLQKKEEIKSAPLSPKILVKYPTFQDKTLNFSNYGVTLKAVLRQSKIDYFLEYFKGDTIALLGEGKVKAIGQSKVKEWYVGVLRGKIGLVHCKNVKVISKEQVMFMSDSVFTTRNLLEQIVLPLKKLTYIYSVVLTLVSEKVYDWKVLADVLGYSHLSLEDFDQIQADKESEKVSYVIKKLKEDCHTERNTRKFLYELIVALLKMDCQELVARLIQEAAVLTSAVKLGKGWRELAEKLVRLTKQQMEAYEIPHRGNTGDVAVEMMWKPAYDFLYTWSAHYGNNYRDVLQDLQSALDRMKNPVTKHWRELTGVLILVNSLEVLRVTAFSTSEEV

Chains of the proteins cited; added tags and fusions are not shown.
UniProt P35222: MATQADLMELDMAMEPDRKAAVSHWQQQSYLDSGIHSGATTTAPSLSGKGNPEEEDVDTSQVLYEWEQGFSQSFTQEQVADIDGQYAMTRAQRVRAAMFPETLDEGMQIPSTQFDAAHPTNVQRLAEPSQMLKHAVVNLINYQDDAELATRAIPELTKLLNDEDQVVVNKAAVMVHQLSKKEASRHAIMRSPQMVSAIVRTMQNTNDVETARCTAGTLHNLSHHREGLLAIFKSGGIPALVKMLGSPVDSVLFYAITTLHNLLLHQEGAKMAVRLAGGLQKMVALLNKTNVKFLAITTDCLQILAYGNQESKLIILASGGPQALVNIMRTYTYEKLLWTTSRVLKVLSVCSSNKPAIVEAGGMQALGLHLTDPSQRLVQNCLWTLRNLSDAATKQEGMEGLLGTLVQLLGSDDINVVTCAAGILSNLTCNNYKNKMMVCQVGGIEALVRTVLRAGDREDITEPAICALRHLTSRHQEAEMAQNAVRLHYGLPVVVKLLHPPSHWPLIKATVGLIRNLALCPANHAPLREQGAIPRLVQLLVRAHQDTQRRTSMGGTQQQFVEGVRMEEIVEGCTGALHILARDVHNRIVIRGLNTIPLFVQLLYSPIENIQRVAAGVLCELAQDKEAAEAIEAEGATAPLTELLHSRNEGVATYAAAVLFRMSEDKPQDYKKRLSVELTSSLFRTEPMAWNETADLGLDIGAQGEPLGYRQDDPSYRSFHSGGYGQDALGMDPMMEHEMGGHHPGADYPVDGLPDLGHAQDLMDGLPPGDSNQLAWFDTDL

[2] = molecular target: T2, Metastasis-associated in colorectal cancer-1 (MACC1) (human (endogenous in SW620)) (UniProt Q6ZN28); test: co-IP; Co-IP on whole-cell lysates, cytoplasmic and nuclear protein of SW620 cells
T2 sequence: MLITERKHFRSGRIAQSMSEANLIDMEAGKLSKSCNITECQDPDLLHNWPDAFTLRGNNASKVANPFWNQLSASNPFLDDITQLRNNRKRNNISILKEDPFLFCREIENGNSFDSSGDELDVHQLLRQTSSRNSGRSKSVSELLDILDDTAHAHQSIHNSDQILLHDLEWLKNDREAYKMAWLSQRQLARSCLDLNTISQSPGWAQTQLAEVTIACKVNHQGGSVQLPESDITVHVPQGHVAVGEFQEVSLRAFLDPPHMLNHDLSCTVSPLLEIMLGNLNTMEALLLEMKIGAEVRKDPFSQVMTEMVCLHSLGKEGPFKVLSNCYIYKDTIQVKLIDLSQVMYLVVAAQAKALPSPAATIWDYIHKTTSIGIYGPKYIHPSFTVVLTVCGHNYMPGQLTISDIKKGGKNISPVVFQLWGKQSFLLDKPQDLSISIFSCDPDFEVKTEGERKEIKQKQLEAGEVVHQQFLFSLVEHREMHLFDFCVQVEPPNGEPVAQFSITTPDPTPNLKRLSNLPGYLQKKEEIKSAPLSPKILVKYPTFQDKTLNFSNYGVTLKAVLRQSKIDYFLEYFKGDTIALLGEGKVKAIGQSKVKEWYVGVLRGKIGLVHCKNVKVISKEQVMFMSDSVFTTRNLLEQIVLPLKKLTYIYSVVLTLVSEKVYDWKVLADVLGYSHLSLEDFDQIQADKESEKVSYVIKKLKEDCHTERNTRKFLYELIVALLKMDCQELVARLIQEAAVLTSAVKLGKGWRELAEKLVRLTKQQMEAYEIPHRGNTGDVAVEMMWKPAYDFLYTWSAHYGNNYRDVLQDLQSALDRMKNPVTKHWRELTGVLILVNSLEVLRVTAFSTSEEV

[3] = molecular target: recombinant human β-catenin (human) (UniProt P35222); test: co-IP; cell-free Co-IP: recombinant human MACC1 and β-catenin co-incubated in an equimolar ratio in lysis buffer; IP of MACC1 and IP of β-catenin; both purified

binding [1]: binds
Molecule: recombinant human β-catenin (from UniProt P35222 1-781)

binding [2]: binds
Molecule: β-catenin (from UniProt P35222 1-781)

binding [3]: binds
B1: recombinant human MACC1 (protein, UniProt Q6ZN28 1-852)
chain: MLITERKHFRSGRIAQSMSEANLIDMEAGKLSKSCNITECQDPDLLHNWPDAFTLRGNNASKVANPFWNQLSASNPFLDDITQLRNNRKRNNISILKEDPFLFCREIENGNSFDSSGDELDVHQLLRQTSSRNSGRSKSVSELLDILDDTAHAHQSIHNSDQILLHDLEWLKNDREAYKMAWLSQRQLARSCLDLNTISQSPGWAQTQLAEVTIACKVNHQGGSVQLPESDITVHVPQGHVAVGEFQEVSLRAFLDPPHMLNHDLSCTVSPLLEIMLGNLNTMEALLLEMKIGAEVRKDPFSQVMTEMVCLHSLGKEGPFKVLSNCYIYKDTIQVKLIDLSQVMYLVVAAQAKALPSPAATIWDYIHKTTSIGIYGPKYIHPSFTVVLTVCGHNYMPGQLTISDIKKGGKNISPVVFQLWGKQSFLLDKPQDLSISIFSCDPDFEVKTEGERKEIKQKQLEAGEVVHQQFLFSLVEHREMHLFDFCVQVEPPNGEPVAQFSITTPDPTPNLKRLSNLPGYLQKKEEIKSAPLSPKILVKYPTFQDKTLNFSNYGVTLKAVLRQSKIDYFLEYFKGDTIALLGEGKVKAIGQSKVKEWYVGVLRGKIGLVHCKNVKVISKEQVMFMSDSVFTTRNLLEQIVLPLKKLTYIYSVVLTLVSEKVYDWKVLADVLGYSHLSLEDFDQIQADKESEKVSYVIKKLKEDCHTERNTRKFLYELIVALLKMDCQELVARLIQEAAVLTSAVKLGKGWRELAEKLVRLTKQQMEAYEIPHRGNTGDVAVEMMWKPAYDFLYTWSAHYGNNYRDVLQDLQSALDRMKNPVTKHWRELTGVLILVNSLEVLRVTAFSTSEEV
